Data source: PubChem BioAssay AID1259331 (Drosophila RNAi Screening Center, 2017)

Purpose: 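Fly transmembrane-protein genes that affect zinc toxicity in cultured cells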 (primary screen)
Cell system: Drosophila S2R+ cells
Reagents: long dsRNA against Drosophila genes
Duration: 5 days (4 days knock-down, then 1 day zinc)
Conditions: zinc chloride at 15 mM final level for 1 day
Detection: 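Total cellular ATP measured by luciferase luminescence as a viability proxy, turned into Z scores from three plate copies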
Reading the numbers: mean Z score: higher = more ATP than other wells, better survival under zinc; ATP luminescence: higher = more ATP, more viable cells
Hit rule: 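Hit when the absolute Z score is greater than 1.5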
Calls: active = hit, ATP up or down; inactive = not a hit
The deposit covers about 3,100 reagents; this is a part drawn at random. Of all reagents, 126 (4.1%) are marked active. 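Calls are per reagent; zinc was so toxic that few knock-downs lowered ATP further, so most hits raise ATP.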 The raw values are shown without normalisation. Entries without a mark were called inactive. The numbers tell different reagents against one gene apart. A plus sign joins genes that one reagent is predicted to hit. Not stated in the record: the amount of reagent.

Target gene,reagent no.,mean Z score,"ATP luminescence, replicate 1","ATP luminescence, replicate 2"
rho-7 (rhomboid-7),1,0.136,80214,80338
alphaKap4 (alpha Karyopherin-4),1,-0.753,69282,53721
alphaKap4 (alpha Karyopherin-4),2,-0.455,53807,50875
GABA-B-R1 (metabotropic GABA-B receptor subtype 1),1,0.244,49449,50824
GABA-B-R1 (metabotropic GABA-B receptor subtype 1),2,0.194,58163,59792
wit (wishful thinking),1,-0.52,29534,25193
wit (wishful thinking),2,-0.784,50041,41496
wit (wishful thinking),3,-0.0772,48081,48063
TkR99D (Tachykinin-like receptor at 99D),1,-0.00594,68709,63133
TkR99D (Tachykinin-like receptor at 99D),2,-0.781,46159,48514
ZnT49B (Zinc transporter 49B),1,-0.218,64713,58196
ZnT49B (Zinc transporter 49B),2,0.479,56825,52950
CG30394,1,0.64,57330,40605
CG30394,2,0.257,69687,70956
MFS16 (Major Facilitator Superfamily Transporter 16),1,0.15,53704,42885
MFS16 (Major Facilitator Superfamily Transporter 16),2,0.131,63650,57580
CG11069,1,-0.25,41702,45834
GAA1 (Glycosylphosphatidylinositol anchor attachment 1),1,-0.746,36902,37210
GAA1 (Glycosylphosphatidylinositol anchor attachment 1),2,-0.142,53381,55110
Apl (Apollo),1,-0.44,67775,56499
CG42816,1,-0.0119,76342,63684
CG31272,1,-0.616,38736,50343
CG31272,2,-0.365,42165,43914
CG14196,1,0.043,41393,45206
CG14196,2,0.00606,56619,57648
CG33635,1,-0.0585,43571,40582
CNT2 (Concentrative nucleoside transporter 2),1,0.231,31595,35608
moody,1,-0.149,58849,68418
ppk26 (pickpocket 26),1,1.02,94579,75606
ppk26 (pickpocket 26),2,0.11,58488,59582
PGRP-SC1a (Peptidoglycan recognition protein SC1a),1,0.245,76633,79172
robo1 (roundabout 1),1,0.131,52624,37982
Papst2 (PAPS transporter 2),1,-0.409,30490,24919
Papst2 (PAPS transporter 2),2,0.0507,56482,64662
Indy (I'm not dead yet),1,-0.525,25331,28471
hbt + CG43779,1,-0.072,46657,47665
hbt + CG43779,2,-0.436,54818,50069
CG10486,1,-0.0666,73049,59466
CG10486,2,-0.0208,49692,47943
fz3 (frizzled 3),1,-0.54,57614,56551
fz3 (frizzled 3),2,-0.534,54544,51749
CG13978,1,-0.236,65485,58728
Gr93a (Gustatory receptor 93a),1,0.221,36478,60649
Gr93a (Gustatory receptor 93a),2,-0.153,56568,51995
"ATPsynbetaL (ATP synthase, beta subunit-like)",1,0.24,85464,69087
"ATPsynbetaL (ATP synthase, beta subunit-like)",2,-0.186,54304,60889
MFS18 (Major Facilitator Superfamily Transporter 18),1,-0.00353,51527,61106
MFS18 (Major Facilitator Superfamily Transporter 18),2,0.529,66874,65489
Or42a (Odorant receptor 42a),1,0.0146,1.04e5,74428
ppk7 (pickpocket 7),1,-0.717,40639,42349
CG9467,1,-0.141,43232,45560
mdy (midway),1,-0.309,37413,40399
mdy (midway),2,-0.83,40793,48457
CG5021,1,0.254,73906,70027
CG5021,2,0.631,72260,68006
fbl (fumble),1,-0.273,67783,60649
fbl (fumble),2,0.295,58369,78623
Gr64f (Gustatory receptor 64f),1,-0.311,69258,56431
Gr64f (Gustatory receptor 64f),2,-0.139,54270,54973
CG5892,1,0.405,37585,66205
CG5892,2,-0.617,43348,46194
sip3 (septin interacting protein 3),1,-0.379,54647,56482
sip3 (septin interacting protein 3),2,-0.255,49435,56019
CG1494,1,-0.02,33662,51268
CG2126,1,0.31,67097,75381
blot (bloated tubules),1,-0.575,27113,30140
blot (bloated tubules),2,-0.0733,51389,55899
CHOp24,1,-0.311,42182,44977
CHOp24,2,0.476,65228,50978
COX6AL2 (Cytochrome c oxidase subunit 6A-like 2),1,0.488,89173,70493
COX6AL2 (Cytochrome c oxidase subunit 6A-like 2),2,-0.0292,57477,51338
Gr63a (Gustatory receptor 63a),1,-0.224,74112,57191
Ptr (Patched-related),1,-0.576,54321,62484
Ptr (Patched-related),2,0.296,50549,52058
CngB (Cyclic nucleotide-gated ion channel subunit B),1,-0.381,25399,33284
Desat2 (Desaturase 2),1,0.902,71196,66377
Desat2 (Desaturase 2),2,-0.351,44445,43022
Gr8a (Gustatory receptor 8a),1,-0.0144,68932,62621
CG7497,1,0.343,62861,62158
CG7497,2,-0.329,47840,44188
CG17930,1,0.121,46091,48920
CG17930,2,0.965,73100,79481
CG5906,1,0.247,82671,62467
Or46a + asRNA:CR43467,1,1.8 (active),95160,1.11e5
Or46a + asRNA:CR43467,2,-0.125,49555,41599
Or46a + asRNA:CR43467,3,-0.655,45708,56984
CG5421,1,-0.361,44964,38839
CG5421,2,-0.0669,61504,40980

Called active (from the list above):
Target gene,reagent no.,mean Z score,"ATP luminescence, replicate 1","ATP luminescence, replicate 2"
Or46a + asRNA:CR43467,1,1.8 (active),95160,1.11e5
